From PubChem BioAssay AID504467 (National Center for Advancing Translational Sciences (NCATS), 2011)
Hit rate of the full screen: of about 330,000 compounds, about 7,700 (2.3%) were called active. The inconclusive results got no clear call from the source; some entries with a clear call stand among them for comparison. Calls come from the whole dose curve; as a rule, active = well fitted inhibition curve with a large enough effect; inconclusive = small, poorly fitted or top-dose-only effect, or effect the other way; inactive = flat fitted curve, though single readings scatter. A potency beside an inconclusive call is a rough fit, not a confirmed value.

assay: qHTS screen for small molecules that inhibit ELG1-dependent DNA repair in human embryonic kidney (HEK293T) cells expressing luciferase-tagged ELG1; details: HEK293T ELG1-luciferase reporter, luminescence, 16 h, DNA damage induced by 5-fluorouridine; series mostly up to 46.1 µM; note: nearly all actives have a fitted effect of over 55% in size
Summary of the method: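 Quantitative HTS, concentration-response format. 2,000 cells/well co-treated with 5-fluorouridine and compound, 16 hr in 5% CO2 at 37 °C; ONE-Glo luminescence read after 30 min.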
Potency is the fitted concentration of half-maximal effect.

Row | SMILES | Potency
1 | CCOC(=O)c1cnn(-c2ccccn2)c1N | inconclusive: 18.4 µM [activator, partial curve]
2 | CCOc1ccc(CCNC(=O)C2CCN(c3nnc(-n4cccc4)s3)CC2)cc1OCC | inconclusive: 18.4 µM [inhibitor, single point]
3 | CCOC(=O)c1[nH]c2ccccc2c1NC(=S)Nc1ccccc1C | inconclusive: 11.6 µM [activator, partial curve]
4 | Cc1nn(-c2ccccc2)c2sc(C(=O)O)cc12 | inconclusive: 32.6 µM [activator, single point]
5 | COc1ccc(Cc2nc(C(=O)Nc3ccc(F)cc3)cs2)cc1 | inactive
6 | COc1ccccc1C(NC(C)=O)c1cc(Cl)c2cccnc2c1O (stereo not drawn) | inconclusive: 2.91 µM [inhibitor, full curve, poor fit]
7 | O=C1CCN(CCc2ccccc2)CCN1CCSc1ccc(Br)cc1 | inactive
8 | COc1ccc(C(=O)N2CCc3ccc(NC(=O)c4ccccn4)cc3C2)cc1F | inconclusive: 25.9 µM [inhibitor, partial curve, poor fit]
9 | COc1cc2c(C(=O)OCCN(C)C)c(CSc3ccccc3)n(C)c2cc1Br | inactive
10 | CCOC(=O)/C(=C/c1cn(C)c2ccccc12)NC(=O)c1ccccc1 | inactive
11 | COc1ccc2ccc(Oc3ncccn3)cc2c1 | inconclusive: 16.4 µM [activator, single point]
12 | Clc1ccc(OCCSc2ncccn2)cc1 | inconclusive: 16.4 µM [activator, partial curve]
13 | O=C(c1ccc(Br)s1)N1CCc2ccccc2C1 | inconclusive: 18.3 µM [activator, partial curve]
14 | N#Cc1nc(COc2cccc(Cl)c2)oc1NCc1ccco1 | inconclusive: 20.6 µM [activator, partial curve]
15 | COc1ccc(N(CC(O)Cn2cnc3ccccc32)S(=O)(=O)c2ccc(C)cc2)cc1 (stereo not drawn) | inconclusive: 23.1 µM [inhibitor, partial curve, poor fit]
16 | NC(=O)c1nsc(C(=O)N(c2ccc3c(c2)OCCO3)C(C(=O)NCC2CCCO2)c2ccc(F)cc2)c1N (stereo not drawn) | inconclusive: 29.1 µM [activator, partial curve, poor fit]
17 | CC(C)(C)NS(=O)(=O)c1ccc(C(=O)Nc2ccc3c(c2)OCO3)cc1 | inconclusive: 23.1 µM [activator, single point]
18 | O=C(CSc1nnc2c(n1)[nH]c1ccc(F)cc12)N1CCOCC1 | inconclusive: 20.6 µM [activator, single point]
19 | COc1ccc(-c2csc(-n3ncc(-c4ccccn4)c3N)n2)cc1 | inactive
20 | COc1ccc(NC(=O)Nc2cccs2)cn1 | inconclusive: 20.6 µM [activator, single point]
21 | CCCCOc1ccc(/C=C/C(=O)NC2=Nc3ccccc3NC(C)=C2C(=O)OCC)cc1OC | inconclusive: 5.17 µM [inhibitor, partial curve, poor fit]
22 | Cc1nnc(N2CCCC(C(=O)NCc3ccc(OC(C)C)cc3)C2)c2nn(-c3ccccc3)c(C)c12 (stereo not drawn) | inconclusive: 32.6 µM [inhibitor, single point]
23 | CCOC(=O)c1ccc(N2C(=O)c3n[nH]c(C)c3C2c2ccc(OC)cc2OC)cc1 (stereo not drawn) | inconclusive: 14.6 µM [inhibitor, partial curve, poor fit]

Four structures out of the list, sorted by molar mass, high to low:
Row | SMILES | Potency
15 | COc1ccc(N(CC(O)Cn2cnc3ccccc32)S(=O)(=O)c2ccc(C)cc2)cc1 (stereo not drawn) | inconclusive: 23.1 µM [inhibitor, partial curve, poor fit]
8 | COc1ccc(C(=O)N2CCc3ccc(NC(=O)c4ccccn4)cc3C2)cc1F | inconclusive: 25.9 µM [inhibitor, partial curve, poor fit]
10 | CCOC(=O)/C(=C/c1cn(C)c2ccccc12)NC(=O)c1ccccc1 | inactive
1 | CCOC(=O)c1cnn(-c2ccccn2)c1N | inconclusive: 18.4 µM [activator, partial curve]

Going on with the list.

Row | SMILES | Potency
24 | Cc1ccc(NC(=S)N(CCN2CCCCC2)Cc2ccco2)cc1Cl | inactive
25 | CCN(CC)CC(=O)Nc1c(C)cc(C(C)(C)C)cc1C | inconclusive: 11.2 µM [activator, partial curve, poor fit]
26 | COc1cccc(OC)c1C(=O)Nc1cccc(-n2cnnn2)c1 | inactive
27 | Cc1cccc(C(=O)NN/C=C/C(=O)c2ccccc2)c1 | inactive
28 | Cc1nn(-c2ccccc2)c(N2CCCC2)c1/C=N/NC(=O)c1cc(-c2ccccn2)nc2ccccc12 | active: 8.2 µM
29 | N#CCOC(=O)C1c2ccccc2Oc2ccccc21 | inactive
30 | COc1ccc(NC(=O)N(C)C[C@@H]2Oc3ccc(NC(=O)NC(C)C)cc3CC(=O)N([C@H](C)CO)C[C@@H]2C)cc1 | inconclusive: 20.6 µM [inhibitor, single point]
31 | O=C(Nc1ccc(S(=O)(=O)N2CCN(c3ccccc3)CC2)cc1)c1cccs1 | active: 11.6 µM
32 | C=CCn1c(SCC(=O)N2CC(=O)Nc3ccccc32)nc2scc(-c3cccs3)c2c1=O | inconclusive: 8.2 µM [inhibitor, partial curve]
33 | Cc1nn(-c2ccccc2)c(C)c1C(=O)OCC(=O)N(C)c1c(N)n(Cc2ccccc2)c(=O)[nH]c1=O | inactive
34 | CCOc1cc(/C=N/NC(=O)Cn2nc([N+](=O)[O-])cc2C)cc(Br)c1OCc1ccccc1F | inactive
35 | Cc1cc(=O)oc2cc(NC(=O)C3CCCC3)ccc12 | inconclusive: 13 µM [activator, partial curve, poor fit]
36 | O=C1CSC(c2cn(-c3ccccc3)nc2-c2ccc3c(c2)OCCO3)N1CCN1CCOCC1 (stereo not drawn) | inconclusive: 16.4 µM [inhibitor, partial curve, poor fit]
37 | Oc1ccc(/C=N/Nc2nn3cnnc3c3ccccc23)cc1 | inconclusive: 14.6 µM [activator, single point]
38 | COc1ccc(-c2ccc3c(c2)O/C(=C\c2ccsc2)C3=O)cn1 | inconclusive: 13 µM [activator, partial curve]
39 | CC1Cc2ccccc2N1C(=O)CSc1nnnn1-c1ccc2c(c1)OCCO2 (stereo not drawn) | inconclusive: 5.8 µM [inhibitor, full curve]
40 | CN(CCO)C(=O)c1c(NC(=O)c2ccccc2)sc2c1CCCC2 | inconclusive: 0.0041 µM [activator, full curve, poor fit]
41 | COc1ccc(CCNC(=O)CSc2nn(-c3ccccc3)c(=S)s2)cc1OC | inconclusive: 29.1 µM [inhibitor, single point]
42 | O=c1[nH]nc(-c2ccc(OCc3ccc(Cl)cc3Cl)cc2)o1 | inactive
43 | COc1ccc(NC(=O)CS(=O)CC(=O)Nc2cc(Cl)ccc2OC)cc1 (stereo not drawn) | inactive
44 | CN(Cc1ccccc1)C(=O)CN1C(=O)c2ccccc2S1(=O)=O | inconclusive: 23.1 µM [activator, partial curve, poor fit]
45 | Cc1cc(C)cc(N2C(=O)CC(N3CCOCC3)C2=O)c1 (stereo not drawn) | inactive
46 | CC(=O)c1cccc(NC(=O)c2ccc(NS(C)(=O)=O)cc2)c1 | inconclusive: 20.6 µM [activator, partial curve, poor fit]

Row | SMILES | Potency
47 | Cc1csc2c(N3CCN(C(=O)Nc4ccccc4)CC3)ncnc12 | inconclusive: 29.1 µM [inhibitor, single point]
48 | Cc1cc(NC(=O)C2CCN(S(=O)(=O)c3cnc[nH]3)CC2)ccc1Br | inconclusive: 5.17 µM [inhibitor, partial curve, poor fit]
49 | CC(C)Oc1ccc(OCCNC2CCCC2)cc1 | inconclusive: 16.4 µM [activator, single point]
50 | O=C(/C=C/c1cccnc1)c1ccccc1O | inactive
51 | CCCn1c(CC)nc([N+](=O)[O-])c1Sc1ccc(F)cc1 | inconclusive: 7.31 µM [inhibitor, partial curve, poor fit]
52 | CCN(C(N)=S)c1ccccc1 | inactive
53 | COc1ccc(-n2nc(C(=O)NCC(=O)NCc3ccccc3OC)c3ccccc3c2=O)c(OC)c1 | inactive
54 | CCCCn1nc2cc(C(=O)NCC34CC5CC(CC(C5)C3)C4)ccc2c1OCC | inconclusive: 10.3 µM [inhibitor, partial curve, poor fit]
55 | CC1Cc2cc(-c3csc(N)n3)ccc2O1 (stereo not drawn) | inconclusive: 8.2 µM [activator, partial curve]
56 | c1ccc(Cn2c(CSc3nnnn3-c3ccccc3)nc3ccccc32)cc1 | inconclusive: 20.6 µM [inhibitor, single point]
57 | Cc1cc(-n2c(C)cc(C(=O)CN3C(=O)NC4(CCCC4)C3=O)c2C)no1 | inconclusive: 18.4 µM [activator, partial curve, poor fit]
58 | O=C(CSc1nnc(-c2ccccn2)n1Cc1ccco1)c1ccccc1 | inactive
59 | COc1ccc(Cl)cc1NC(=O)Nc1ccccc1C(N)=O | inactive
60 | O=[N+]([O-])c1ccc(Nc2ccc(F)cc2)nc1 | inconclusive: 20.6 µM [activator, partial curve, poor fit]
61 | COc1ccc(C(=O)N/N=C/c2ccc(OC)c(CN3CCc4cc(OC)c(OC)cc4C3C)c2)cc1 (stereo not drawn) | inconclusive: 16.4 µM [inhibitor, single point]
62 | COc1ccc(O)c(/C=N/NC(=O)CCC(=O)Nc2ccc(C)cc2)c1 | inconclusive: 11.6 µM [inhibitor, partial curve]
63 | Cn1nc(C(=O)Nc2ccc(S(=O)(=O)N3CCOCC3)cc2)c2ccccc2c1=O | inconclusive: 20.6 µM [activator, single point]
64 | CCN(CC)S(=O)(=O)c1ccc(C)c(NC(=O)CNCc2ccccc2OC)c1 | inconclusive: 13 µM [inhibitor, partial curve, poor fit]
65 | COc1ccc(CNC(=O)Cn2ncn3cccc3c2=O)cc1 | inconclusive: 4.11 µM [activator, partial curve]
66 | O=C1OCC/C1=C\c1ccc2c(c1)OCO2 | inconclusive: 4.61 µM [inhibitor, full curve, poor fit]
67 | CN(C)c1ccc(N=C/C=C2/N(C)c3ccccc3C2(C)C)cc1 | inconclusive: 16.4 µM [activator, partial curve]
68 | O=C(Nc1cccc2[nH]ncc12)c1ccc(F)cc1 | inconclusive: 0.92 µM [inhibitor, full curve]
